From PubChem BioAssay AID493014 (National Center for Advancing Translational Sciences (NCATS), 2011)
Out of some 340,000 compounds screened, about 170 (0.05%) were called active. Inconclusive means that the source gave no clear call. Such entries were picked first, then a sample of the others. Calls follow the shape of the dose curve; as a rule, active = well fitted inhibition curve with a large enough effect in the signal ratio, with a control signal flat (not every such curve was filed as active); inconclusive = small, poorly fitted or top-dose-only effect, or effect the other way, or a change in a side signal; inactive = flat fitted curve, though single readings scatter; the % refers to the signal ratio. Where the call is inconclusive, the potency comes from a doubtful curve fit.

Assay: qHTS Assay to Find Inhibitors of Chronic Active B-Cell Receptor Signaling;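 as to activity change, negative = inhibition: plate controls were basal doxycycline-induced cells for no effect and cells given 10 µM MG132 for full effect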
Details: ABC-DLBCL IkBa-CBG/CBR reporter, luminescence ratio (green luciferase fused to IkBa over red control in TMD8 lymphoma cells), 4 h; activity change, negative = inhibition: at 46.1 µM (top of the series) unless noted
Summary of the method: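 TMD8 human ABC-DLBCL cells with doxycycline-inducible IκBα–green luciferase fusion and unfused red luciferase, in 0.5% FBS medium; compounds up to 46 uM, 4 h at 37C. Green/red luminescence ratio, filter-overlap corrected, fitted to concentration-response curves.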
Potency is read from the fitted curve at half-maximal effect.

SMILES | Potency | activity change, negative = inhibition
O=C(Cn1cc(/C=C\[N+](=O)[O-])c2ccccc21)Nc1ccccc1 | inconclusive: 12.6 µM [falling, partial curve] | –
Cc1nc(SCc2ccccc2)c2ccsc2n1 | – | inactive
COCCCn1c(=O)c2sccc2n(Cc2cc(C(=O)OC)ccc2OC)c1=O | inconclusive: 17.8 µM [falling, partial curve] | –
Cc1ccc(OCc2ccc(C(=O)NN)o2)c([N+](=O)[O-])c1 | inconclusive: 20 µM [falling, partial curve] | –
Cc1ccc(-n2c(N)c(C(=O)N3CCOCC3)sc2=S)cc1 | – | inconclusive: 0.271%
COc1ccc(NC(=S)N2CCC(c3ccc(C)cc3)C2)cc1 (stereo not given) | – | inconclusive: 0.439%
Cn1c(N2CCOCC2)nc(-c2ccccc2)c1-c1ccccc1 | – | inactive
CC(=O)N1N=C(c2ccccc2)CC1c1cn(C)c2ccccc12 (stereo not given) | inconclusive: 16.4 µM [falling, partial curve, poor fit] | –
Cc1ccc(NC(=S)NNC(=S)Nc2ccc(C)cc2C)cc1 | active: 17.8 µM | –
COc1cc2c(cc1OC)C(c1cc3cc4c(cc3[nH]c1=O)OCO4)N(C(=O)C(C)C)CC2 (stereo not given) | inconclusive: 20.6 µM [falling, partial curve, poor fit] | –
CCC(CC)NC(=O)CO/N=C/c1ccccc1OC(F)F | – | inconclusive: 5.56%
O=c1c2ccc([N+](=O)[O-])cc2ncn1CCOc1ccccc1 | – | inactive
CC(C)NC(=O)c1cc(C(=O)c2cc(Cl)ccc2O)coc1=N | – | inconclusive: 0.102%
COc1ccc(NC(=O)CC2C(=O)N(CCc3ccccc3)C(=S)N2Cc2cccnc2)cc1 (stereo not given) | – | inconclusive: -3.18%
CC(C)(C)c1ccc(CN2C(=O)c3ccccc3S2(=O)=O)cc1 | – | inconclusive: 16.2%
O=C(CC1C(=O)NCCN1C(=O)Nc1ccccc1)Nc1cc(Cl)ccc1Cl (stereo not given) | – | inconclusive: 3.01%
COc1ccc(NS(=O)(=O)c2cccc(Cl)c2)cc1S(=O)(=O)N1CCCCC1 | – | inconclusive: 16.1%
Cc1ccc(NC(=O)c2ccccc2)cc1C | – | inactive
NC(=S)Nc1ccc(Cl)cc1Cl | – | inactive
CC(=O)Oc1ccc(/C=C/c2nc3ccccc3c(=O)o2)cc1 | inconclusive: 35.5 µM [rising, single point] | –
Cc1nc2ccccc2n1CCc1nc2c3ccccc3nc(SCc3ccccc3F)n2n1 | – | inactive
CCOC(=O)c1[nH]c(C)c(C(=O)Nc2cc(Cl)ccc2C)c1C | inconclusive: 16.4 µM [falling, single point] | –
O=C(/C=C/c1ccco1)NC(=S)Nc1ccc(N2CCOCC2)c(Cl)c1 | – | inactive
N#Cc1cc(N2CCOCC2)nc2ccccc12 | – | inconclusive: -1.31%
Cc1c(C(=O)N/N=C/c2ccccn2)nnn1-c1nonc1N | inconclusive: 11.2 µM [falling, partial curve, poor fit] | –
O=C(Cn1ncc(Cl)c(Cl)c1=O)NC(=O)NC1CCCCC1 | – | inconclusive: 5.18%
CC(/C=N/n1c(-c2ccc(Cl)cc2)n[nH]c1=S)=C\c1ccco1 | – | inconclusive: 5.57%

SMILES | Potency | activity change, negative = inhibition
O=C(Nc1cccc2cccnc12)c1ccc(Cl)cc1Cl | – | inconclusive: 8.21%
Cc1nc2ccc(NC(=O)c3cc(S(=O)(=O)N(C)c4ccccc4)ccc3Cl)cc2s1 | – | inactive
Cc1cccc(CN2CCN(Cc3cnn(-c4ccccc4F)c3)CC2CCO)n1 (stereo not given) | – | inconclusive: 3.34%
CCN1C(=NCCCCO)N[C@@H](c2cccc(F)c2)C(C(=O)OC)=C1C | inconclusive: 0.794 µM [falling, full curve, poor fit] | –
O=C(Nc1ccc2c(c1)OCCO2)c1cncc(Br)c1 | – | inconclusive: -22.8%
CC(=O)c1ccc(C(=O)N2CCCC(Nc3ccccc3)C2)s1 (stereo not given) | – | inconclusive: 1.18%
COc1cccc(/C(O)=C/c2nc3ccc(C(=O)NCCc4cccc(C)c4)cc3[nH]c2=O)c1 | – | inconclusive: -8.58%
CCOc1ccccc1NC(=O)C(=O)NCC1CCCN1CC (stereo not given) | inconclusive: 15.8 µM [falling, partial curve] | –
CCOc1ccc(NC(=O)CN(C)C(=O)Cn2cnc3c2c(=O)n(C)c(=O)n3C)cc1OCC | – | inactive
C(=N\N1CCN(c2ccccn2)CC1)/c1cccc2ccccc12 | – | inconclusive: -16%
COC(=O)C1=C(C)OC(N)=C(C#N)C1c1cc(C)sc1C (stereo not given) | inconclusive: 16.4 µM [falling, single point] | –
C[C@H](CO)N1C[C@H](C)[C@@H](CN(C)C(=O)Nc2ccc3c(c2)OCO3)Oc2c(NC(=O)C3CC3)cccc2C1=O | – | inconclusive: -1.28%
Cc1cccc(CSc2nc3ccccc3c(=O)n2C)c1 | – | inconclusive: 10.7%
CCn1ncc(Cl)c1C(=O)NC(=S)Nc1ccccc1Br | inconclusive: 35.5 µM [cytotoxic, single point] | –
Cc1ccc(-c2n[nH]c(=S)n2/N=C/c2c(C)[nH]n(-c3ccccc3)c2=O)cc1 | – | inconclusive: 12.3%
Cc1nc(SCC(=O)N2CCNC2=O)c2ccccc2n1 | inconclusive: 32.6 µM [falling, partial curve, poor fit] | –
O=[N+]([O-])c1ccccc1NCc1ccccc1Cl | – | inconclusive: -13.7%
N#Cc1c(N2C(=O)C3C4C=CC(C4)C3C2=O)sc2c1CCC2 (stereo not given) | – | inconclusive: 5.55%
Cc1cccn2c(=O)c3cc(C#N)c(=NC(=O)c4cccs4)n(CCCOC(C)C)c3nc12 | inconclusive: 5.01 µM [rising, full curve, poor fit] | –
O=C(O)c1ccc(Oc2ccccc2)o1 | – | inconclusive: 10.5%
O=C(COc1ccccc1)N1CCN(S(=O)(=O)c2cccs2)CC1 | – | inconclusive: -6.65%
COc1ccc(NC(=O)c2cccc(-c3ccc(O)cc3)c2)cn1 | – | inconclusive: -14.9%
Cc1ccc(NC(=O)C2CCN(S(=O)(=O)c3ccc4c(c3)oc(=O)n4C)CC2)cc1 | – | inactive
COc1ccc2nc(SCC(=O)N(C)C3CCCCC3)[nH]c2c1 | – | inconclusive: 2.99%
CN(C(=O)C1CCOC1)c1nnc(-c2ccccn2)s1 (stereo not given) | – | inconclusive: -1.13%
CC(C)Cn1cc(C(=O)N2CCN(c3ccccn3)CC2)c2c3ccccc3n(C)c2c1=O | – | inconclusive: 1.75%
COc1ccccc1NS(=O)(=O)c1ccc(O)c(C(=O)OCC(=O)N2c3ccccc3CC2C)c1 (stereo not given) | inconclusive: 20 µM [falling, single point] | –

SMILES | Potency | activity change, negative = inhibition
Cc1ccc(Nc2nc(-c3ccc(O)c(O)c3)cs2)nc1 | – | inconclusive: 316%
Cc1ccc(NC(=O)c2ccccc2NS(=O)(=O)c2ccc(F)cc2)cc1S(=O)(=O)N1CCCCC1 | – | inconclusive: 1.31%
O=c1[nH]c(/C=C/c2cccnc2)c([N+](=O)[O-])c(=O)[nH]1 | inconclusive: 35.5 µM [falling, single point] | –
Cc1ccc(S(=O)(=O)N2CCN(CC(=O)NC3CCCc4ccccc43)CC2)cc1C (stereo not given) | inconclusive: 32.6 µM [rising, single point] | –
Oc1ccccc1-c1nc(NC2CCCC2)c2ccccc2n1 | – | inconclusive: 5.06%
O=C(CCNC(=O)c1ccccc1Cl)Nc1nc2ccccc2s1 | – | inconclusive: 11%
Nc1c(C(=O)NC2CCCC2)c2nc3ccccc3nc2n1N | – | inconclusive: 2.23%
COc1ccc(Cc2nnc(NC(=O)C3CC(=O)N(c4ccccc4C)C3)s2)cc1OC (stereo not given) | – | inconclusive: -1.13%
CC(=O)Oc1ccc(C(=O)Nc2ccc(C3(C#N)CCCC3)cc2)cc1 | inconclusive: 2.82 µM [falling, full curve] | –
CCOC(=O)CCCCC(=O)c1[nH]c(=O)[nH]c1C[n+]1ccccc1 | – | inactive
O=[N+]([O-])c1cc(C(F)(F)F)ccc1NC1CCN(Cc2ccccc2)CC1 | – | inactive
COCC(C)NC(=O)COc1ccc(Cl)cc1Cl (stereo not given) | – | inconclusive: 7.46%
O=Cc1ccc(O)cc1O | – | inactive
CCN(c1cccc(C)c1)C(C(=O)Nc1ccc(OC)cc1)c1cc2c(cc1[N+](=O)[O-])OCO2 (stereo not given) | – | inconclusive: 2.47%
O=C(c1ccc(Br)o1)N1N=C(c2ccc(Cl)cc2)CC1c1ccco1 (stereo not given) | – | inconclusive: 6.03%
Cc1ccc(C)c(OCCCC(C)(C)C(=O)O)c1 | – | inconclusive: 8.4%
CCc1ccc(N2CC(C(=O)Nc3nc4ccc(S(C)(=O)=O)cc4s3)CC2=O)cc1 (stereo not given) | – | inactive
CC12CCC(C/C1=N\N=C1\NC(=O)/C(=C\c3cccc(Br)c3)S1)C2(C)C (stereo not given) | – | inconclusive: 0.54%
COc1cccc(/C=N/NC(=O)c2ccc(=O)n(C)c2)c1OC | inconclusive: 11.6 µM [falling, partial curve, poor fit] | –
COc1ccccc1N(C)S(=O)(=O)c1ccc(C(=O)OCC(=O)NCc2cccs2)cc1 | – | inconclusive: 5.01%
O=C(NNC1=NCCCCC1)Nc1cccc(Cl)c1 | inconclusive: 35.5 µM [rising, partial curve, poor fit] | –
NC(N)=NS(=O)(=O)c1ccc(NC(=S)NC(=O)c2ccc3c(c2)OCO3)cc1 | inconclusive: 4.47 µM [falling, partial curve] | –
N#Cc1cccc(NC(=O)c2nc(-c3ccccc3)n(-c3ccccc3)n2)c1 | – | inconclusive: 11%
Cc1cc(-c2nnco2)c(C)n1-c1ccc(F)cc1 | – | inconclusive: -3.52%
O=[N+]([O-])c1ccc(/C=C/C2=NN(c3ccccc3)C(c3ccco3)C2)o1 (stereo not given) | – | inconclusive: 11.3%
COc1ccc(-c2nc3c(c(=O)[nH]c(=O)n3Cc3ccccc3)n2Cc2ccccc2)cc1 | inconclusive: 32.6 µM [falling, single point] | –

Reprinted from the listing (3 entries):
SMILES | Potency | activity change, negative = inhibition
CC(=O)Oc1ccc(C(=O)Nc2ccc(C3(C#N)CCCC3)cc2)cc1 | inconclusive: 2.82 µM [falling, full curve] | –
CCOC(=O)CCCCC(=O)c1[nH]c(=O)[nH]c1C[n+]1ccccc1 | – | inactive
O=[N+]([O-])c1cc(C(F)(F)F)ccc1NC1CCN(Cc2ccccc2)CC1 | – | inactive
